No constants are given. Whether binding was seen depends on the method and setting. In cells and extracts the contact can be indirect. Some results given as binding are weak or reduced against the parent protein; the word gives no strength.
Target: T1, transforming growth factor-activated kinase 1 (human (endogenous in HCC cells)) (UniProt O43318)
T1 sequence: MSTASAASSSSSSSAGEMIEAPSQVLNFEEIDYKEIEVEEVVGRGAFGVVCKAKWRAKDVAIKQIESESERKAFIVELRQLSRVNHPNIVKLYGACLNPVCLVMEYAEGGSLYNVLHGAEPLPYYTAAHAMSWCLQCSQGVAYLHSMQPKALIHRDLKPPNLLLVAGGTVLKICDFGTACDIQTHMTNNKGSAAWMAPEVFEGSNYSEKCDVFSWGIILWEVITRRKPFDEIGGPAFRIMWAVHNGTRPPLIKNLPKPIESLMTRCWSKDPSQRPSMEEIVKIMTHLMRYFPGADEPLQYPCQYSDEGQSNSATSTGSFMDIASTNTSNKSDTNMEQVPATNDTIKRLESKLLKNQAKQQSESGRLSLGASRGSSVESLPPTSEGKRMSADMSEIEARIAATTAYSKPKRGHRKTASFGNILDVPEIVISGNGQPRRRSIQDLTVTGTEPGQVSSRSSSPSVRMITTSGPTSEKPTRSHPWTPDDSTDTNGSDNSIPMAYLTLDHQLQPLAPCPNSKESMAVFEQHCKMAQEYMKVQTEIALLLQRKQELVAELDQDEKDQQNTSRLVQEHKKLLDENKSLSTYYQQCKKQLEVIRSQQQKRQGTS
Assay: co-IP; 1 x 10^7 HCC cells lysed in IP lysis buffer (50 mM Tris-HCl, 150 mM NaCl, 1% Triton X-100, 1 mM EDTA, 10% glycerol, protease inhibitors, pH 7.4); indicated antibodies overnight at 4 °C, protein G agarose; five washes with 50 mM Tris-HCl, 300 mM NaCl, 1% Triton X-100, 1 mM EDTA, pH 7.4

B1: transforming growth factor-activated kinase-binding protein 3 (protein, UniProt Q8N5C8 1-712)
chain: MAQSSPQLDIQVLHDLRQRFPEIPEGVVSQCMLQNNNNLEACCRALSQESSKYLYMEYHSPDDNRMNRNRLLHINLGIHSPSSYHPGDGAQLNGGRTLVHSSSDGHIDPQHAAGKQLICLVQEPHSAPAVVAATPNYNPFFMNEQNRSAATPPSQPPQQPSSMQTGMNPSAMQGPSPPPPPPSYMHIPRYSTNPITVTVSQNLPSGQTVPRALQILPQIPSNLYGSPGSIYIRQTSQSSSGRQTPQSTPWQSSPQGPVPHYSQRPLPVYPHQQNYQPSQYSPKQQQIPQSAYHSPPPSQCPSPFSSPQHQVQPSQLGHIFMPPSPSTTPPHPYQQGPPSYQKQGSHSVAYLPYTASSLSKGSMKKIEITVEPSQRPGTAINRSPSPISNQPSPRNQHSLYTATTPPSSSPSRGISSQPKPPFSVNPVYITYTQPTGPSCTPSPSPRVIPNPTTVFKITVGRATTENLLNLVDQEERSAAPEPIQPISVIPGSGGEKGSHKYQRSSSSGSDDYAYTQALLLHQRARMERLAKQLKLEKEELERLKSEVNGMEHDLMQRRLRRVSCTTAIPTPEEMTRLRSMNRQLQINVDCTLKEVDLLQSRGNFDPKAMNNFYDNIEPGPVVPPKPSKKDSSDPCTIERKARRISVTSKVQADIHDTQAAAADEHRTGSTQSPRTQPRDEDYEGAPWNCDSCTFLNHPALNRCEQCEMPRYT
  binding: binds

— paper PMC9502615
